Results are given in words; binding and its absence hold for the method and conditions named. For some assays here: Tags and fused reporters may be left off the sequences shown.
Legend:
[1] = molecular target: PnG, type II thioesterase (TEII) of the phoslactomycin polyketide synthase (Pn PKS); test: SEC; HiLoad 16/600 Superdex 200 pg column, 300 mM NaCl, 25 mM NaH2PO4, pH 7.5; elution after Ni-NTA purification; both purified
[2] = molecular target: PnG S93G, active-site (catalytic) knockout; test: as above

| binding [1] | binding [2] | Binder |
| --- | --- | --- |
| no binding |  | PnG, type II thioesterase (TEII) of the phoslactomycin polyketide synthase (Pn PKS) (enzyme) MVTESDRWIRSYLPGPAEALPVVHFPHAGGSASYYRPFCAALSDRFNALALQYPGRQDRRDEPCVTDLHVLADLLFDRLRQCADRPMAFFGHSMGALLAFEVTRRFERELNTSPVALFLSGRRAPSRHRDENVDLSSNESLLAEIRELSGTDPRLLGDDEMLEMIMEPLRADYQALGAYHFAPEPPVRCPVTVLTGADDPRTSQDEAAAWQEHTTGAFDLRVFPGGHFFISENVADVTGFVAERLSAVPLAG |
|  | no binding | PnG S93G, active-site (catalytic) knockout (enzyme) MVTESDRWIRSYLPGPAEALPVVHFPHAGGSASYYRPFCAALSDRFNALALQYPGRQDRRDEPCVTDLHVLADLLFDRLRQCADRPMAFFGHGMGALLAFEVTRRFERELNTSPVALFLSGRRAPSRHRDENVDLSSNESLLAEIRELSGTDPRLLGDDEMLEMIMEPLRADYQALGAYHFAPEPPVRCPVTVLTGADDPRTSQDEAAAWQEHTTGAFDLRVFPGGHFFISENVADVTGFVAERLSAVPLAG |
